Results from article PMC7819943, “Rice protein-binding microarrays: a tool to detect cis-acting elements near promoter regions in rice”.
The other results are listed elsewhere or left out.

target: T1, OsSMF1 (Oryza sativa, UniProt Q6ZLB0 1-436); assay: protein-binding microarray (RPBM); PBS, 2% BSA, 51.3 ng/ul salmon testes DNA, 50 uM zinc acetate, 200 nM TF, 25 C, 1 h; high values mean tight binding; settings: protein: recombinant; tags: N-terminal polyhistidine and DsRed monomer fusion (pET32a); chain copies: 2; label: CyDye5-dUTP incorporated in the synthesized complementary strand; 3' TTTTT single-stranded linker to array surface; dsDNA, one strand shown
T1 sequence: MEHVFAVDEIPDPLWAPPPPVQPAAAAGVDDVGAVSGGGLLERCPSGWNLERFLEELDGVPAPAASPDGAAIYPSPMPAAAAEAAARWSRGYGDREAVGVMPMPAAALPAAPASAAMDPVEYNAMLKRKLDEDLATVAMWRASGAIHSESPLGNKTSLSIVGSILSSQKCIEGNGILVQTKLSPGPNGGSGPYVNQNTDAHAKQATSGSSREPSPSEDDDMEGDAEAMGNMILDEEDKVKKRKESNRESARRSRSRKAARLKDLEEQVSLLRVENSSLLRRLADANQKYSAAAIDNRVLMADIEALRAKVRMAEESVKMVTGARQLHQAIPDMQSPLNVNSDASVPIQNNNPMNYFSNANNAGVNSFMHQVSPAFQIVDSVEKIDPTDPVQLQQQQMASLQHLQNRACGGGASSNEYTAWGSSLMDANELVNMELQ
How it was run: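 Ni–NTA purification followed expression in E. coli BL21-CodonPlus of transcription factors fused N-terminally to a polyhistidine tag and DsRed. At 200 nM in PBS with 2% BSA, salmon testes DNA and 50 µM zinc acetate, the protein was incubated for 1 h at 25 °C with a custom Agilent array that had been primer-extended with Cy5-dUTP and blocked with 2% BSA. After washing, the array was read on an Axon 4000B scanner. The binding signal is per-feature fluorescence intensity in arbitrary units.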

Sequence	binding signal
CAATTTAATGCTACTTATCTCACATGATGTCTTGGATGTTCGGAGTCACCTAGTGCAG	3980 fluorescence intensity (a.u.)
CAATTCTACAATATGCCACTGAGTTTACCAAGTTATACAACGGAGTCACCTAGTGCAG	4020 fluorescence intensity (a.u.)
TGGTTGCAAGTGTGCATAGCTTGTCATTTTGTGACATGGGCGGAGTCACCTAGTGCAG	3320 fluorescence intensity (a.u.)
GTTGCCGATTTTGGCCTTGCCAAACTGTACCCACGGGATACGGAGTCACCTAGTGCAG	3230 fluorescence intensity (a.u.)
TGTTCTTGAGCTCACGCTCCACCTCCATGACATCTATGGACGGAGTCACCTAGTGCAG	3530 fluorescence intensity (a.u.)
CACCATATTAATATATTAGGAAGTGTACGTAAGCATCCATCGGAGTCACCTAGTGCAG	3390 fluorescence intensity (a.u.)
ACAAATTGTTTACGTGCGTCAGGCCGCCGCTGTGATGACACGGAGTCACCTAGTGCAG	5690 fluorescence intensity (a.u.)
GCAGCGGGCATGACAATTTTGTCCTGCCACGCCAGCAAGACGGAGTCACCTAGTGCAG	16800 fluorescence intensity (a.u.)
TCCCCAAGTCAGTCAATGCCATCACTGTCATCTGCTCTCACGGAGTCACCTAGTGCAG	3200 fluorescence intensity (a.u.)
CGCCACAAGCTTCCGGCCCCTAGATAGCCCGCGAAGCCAACGGAGTCACCTAGTGCAG	4160 fluorescence intensity (a.u.)
GCGCCGGCGAGGGTGAGGTCCGGAACGTGACGGTGGAGTCCGGAGTCACCTAGTGCAG	4220 fluorescence intensity (a.u.)
TGCCACGTCAGCGAAAACCACCATCTAAACCACCGCCATGCGGAGTCACCTAGTGCAG	7960 fluorescence intensity (a.u.)
TCCATGCAGGAAGTCAGCAACACCAGTTGATGACACCAACCGGAGTCACCTAGTGCAG	3710 fluorescence intensity (a.u.)
TATGTTATTATGGTGTAGGCAGACGTGTATTTAATTATTTCGGAGTCACCTAGTGCAG	6150 fluorescence intensity (a.u.)
TACGAACGTCCGTCTCTGCCGCACGTGACGGTGGAGCGCCCGGAGTCACCTAGTGCAG	4550 fluorescence intensity (a.u.)
CGTGGGCCCTACACTGACTCAGCCGCCACGTCAACAAAACCGGAGTCACCTAGTGCAG	26000 fluorescence intensity (a.u.)
AGACAGATTGGGATGAATCAAATGTCCAGCCTACGTGGACCGGAGTCACCTAGTGCAG	13100 fluorescence intensity (a.u.)
CGATCTCGCCGGCGACACCGCCGCCACCGCGCCTCCGCCTCGGAGTCACCTAGTGCAG	3240 fluorescence intensity (a.u.)
TTGTGATTTGTGGGATTAGTATCTCTGTCGGTGTCATATCCGGAGTCACCTAGTGCAG	3630 fluorescence intensity (a.u.)
ACTTTTCTCCGTCATCGATCTCTCTTGCCTTAAATGGACGCGGAGTCACCTAGTGCAG	4020 fluorescence intensity (a.u.)
CTCCGCCTCCACGTGTCACTGATCGGTGGGCCCAGGGACCCGGAGTCACCTAGTGCAG	8880 fluorescence intensity (a.u.)

Sequence	binding signal
AAGGTGCCAGGCCACGTGGGCGATTGTGTCTGCCTCAAGCCGGAGTCACCTAGTGCAG	11100 fluorescence intensity (a.u.)
TCGCCATCTCCACCTCCTCCATTCCACCTCCACTCCCGCTCGGAGTCACCTAGTGCAG	3280 fluorescence intensity (a.u.)
AACATTGAGAGATATTCTTGCATCCAATGATCCATCACTTCGGAGTCACCTAGTGCAG	17100 fluorescence intensity (a.u.)
ACCTTAGTGTAGTTGACAAACATCTGGCCTTGCTATATTTCGGAGTCACCTAGTGCAG	3440 fluorescence intensity (a.u.)
ATTTGTAAACAATGTTACTATCACTTTATCAGATGAAGAACGGAGTCACCTAGTGCAG	34600 fluorescence intensity (a.u.)
CATACATCAATCAGTTCTTGATTTGACCGGCATTGTATTGCGGAGTCACCTAGTGCAG	3220 fluorescence intensity (a.u.)
GTAAACTTATTCGATATACATTCCATGCATGGAAGTATCACGGAGTCACCTAGTGCAG	3390 fluorescence intensity (a.u.)
GTTAGCGTGGCATGCCACGTCATCTCACGAAGCGGGTTAGCGGAGTCACCTAGTGCAG	18100 fluorescence intensity (a.u.)
GGCAAACCGCAAAATGGTGGTGGCTCCTCTCCTCGCCGCCCGGAGTCACCTAGTGCAG	25700 fluorescence intensity (a.u.)
GCATGCTAGAACCTCCATACTCATACTCGTAAAAGTAAGTCGGAGTCACCTAGTGCAG	3260 fluorescence intensity (a.u.)
TGCCAAGGTACCATCAACATCGAGCTGCTGATGGCCCCTACGGAGTCACCTAGTGCAG	3410 fluorescence intensity (a.u.)
CCTCCATAGAGGGATCAACTACGGTGAGGTGGAGTGCTTTCGGAGTCACCTAGTGCAG	3960 fluorescence intensity (a.u.)
TTTAGATGGCGGTTTTGGCTGACGTGGCGTCTACGTGACGCGGAGTCACCTAGTGCAG	30700 fluorescence intensity (a.u.)
GCTTTGAGATAAACAAAGGGTCAAGTGCCGCGTGAGGTGGCGGAGTCACCTAGTGCAG	4470 fluorescence intensity (a.u.)
GCTTGGTCCATACCTTGTTTTCCTATCATCCACTGTCAATCGGAGTCACCTAGTGCAG	3160 fluorescence intensity (a.u.)
GACCTAAAGTCCTAAACTAACCAAGTAGCCAGTCAACTGGCGGAGTCACCTAGTGCAG	4320 fluorescence intensity (a.u.)
AATATAAAGCCCACGCAACCATCCACCTAGCATAAGGGTTCGGAGTCACCTAGTGCAG	3310 fluorescence intensity (a.u.)
CACCTCAGCCGTGGTACAGAGAATCCTCACCAAGCCACCACGGAGTCACCTAGTGCAG	3320 fluorescence intensity (a.u.)
TGCGCGCGCCGGCCTACGTGTGTAGGCTCCGTCAGCAGCGCGGAGTCACCTAGTGCAG	6850 fluorescence intensity (a.u.)
GCGTGCCGTTTCCCTGCACAAGCCCAACCCCACACATATCCGGAGTCACCTAGTGCAG	11600 fluorescence intensity (a.u.)
AACTAGTGTAATAGTCACCGTCAAGATTGTCAGGTTGGCGCGGAGTCACCTAGTGCAG	3500 fluorescence intensity (a.u.)

In a second layout: results already given
Sequence,binding signal
GCATGCTAGAACCTCCATACTCATACTCGTAAAAGTAAGTCGGAGTCACCTAGTGCAG,3260 fluorescence intensity (a.u.)
TGCCAAGGTACCATCAACATCGAGCTGCTGATGGCCCCTACGGAGTCACCTAGTGCAG,3410 fluorescence intensity (a.u.)
CCTCCATAGAGGGATCAACTACGGTGAGGTGGAGTGCTTTCGGAGTCACCTAGTGCAG,3960 fluorescence intensity (a.u.)
TTTAGATGGCGGTTTTGGCTGACGTGGCGTCTACGTGACGCGGAGTCACCTAGTGCAG,30700 fluorescence intensity (a.u.)
GCTTTGAGATAAACAAAGGGTCAAGTGCCGCGTGAGGTGGCGGAGTCACCTAGTGCAG,4470 fluorescence intensity (a.u.)
GCTTGGTCCATACCTTGTTTTCCTATCATCCACTGTCAATCGGAGTCACCTAGTGCAG,3160 fluorescence intensity (a.u.)
GACCTAAAGTCCTAAACTAACCAAGTAGCCAGTCAACTGGCGGAGTCACCTAGTGCAG,4320 fluorescence intensity (a.u.)
AATATAAAGCCCACGCAACCATCCACCTAGCATAAGGGTTCGGAGTCACCTAGTGCAG,3310 fluorescence intensity (a.u.)
CACCTCAGCCGTGGTACAGAGAATCCTCACCAAGCCACCACGGAGTCACCTAGTGCAG,3320 fluorescence intensity (a.u.)
TGCGCGCGCCGGCCTACGTGTGTAGGCTCCGTCAGCAGCGCGGAGTCACCTAGTGCAG,6850 fluorescence intensity (a.u.)
GCGTGCCGTTTCCCTGCACAAGCCCAACCCCACACATATCCGGAGTCACCTAGTGCAG,11600 fluorescence intensity (a.u.)
AACTAGTGTAATAGTCACCGTCAAGATTGTCAGGTTGGCGCGGAGTCACCTAGTGCAG,3500 fluorescence intensity (a.u.)
